Measurements reported in ChEMBL document CHEMBL5506042, “Discovery of the Clinical Candidate IDOR-1117-2520: A Potent and Selective Antagonist of CCR6 for Autoimmune Diseases” (J Med Chem, 2024).

Experiment: Lipophilicity, LogD of the compound in 1-Octanol/PBS at pH 7.4 by miniaturized shake flask method
Settings: octanol/water

SMILES: CN1CC(C#N)(C(O)(c2ccc(OC(F)(F)F)cc2)c2cccc(Cl)c2)C1 (racemic)
- logD: 3.8
